Source: paper PMC3420945

B1: MglA (protein, UniProt Q1DB04 1-195)
chain: MSFINYSSREINCKIVYYGPGLCGKTTNLQYIYNKTAAETKGKLISLSTETDRTLFFDFLPLSLGEIRGFKTRFHLYTVPGQVFYDASRKLILKGVDGVVFVADSQIERMEANMESLENLRINLAEQGYDLNKIPYVIQYNKRDLPNAVTVEEMRKALNHRNIPEYQAVAPTGVGVFDTLKAVAKLVLTELKKGG
B2: MglB (protein, UniProt Q1DB03 1-159)
chain: MGTQLVMYEEEFTKINAVCDRLTKDANAKVVFLVDKNGQLISSAGQTQNIDTTSLASLTAGNVAAMGGLAKLIGENEFPNQFHEGAKDSLYMTIVGSRVVLVVIFDNRTSLGLVRLRIKKASDELTKIFESLVKKTDSPGAGSPFAEISDDDIDNLFSE

Biological target: RomR fused to a hexahistidine motif (His6) at its C-terminus (Myxococcus xanthus)
Assay: pull-down; co-purification of M. xanthus soluble extracts on nickel beads by RomR-His6 (otherwise WT, mglA and mglB mutant backgrounds); lysis buffer NaH2PO4 50 mM, NaCl 100 mM, MgCl2 5 mM, 10 uM GDP, 20 mM imidazole pH 8.0; 4°C, 2 hours; three washes; Western blot of the eluate; control strains with un-tagged RomR

| Binder | binding |
| --- | --- |
| B1 | binds |
| B2 | binds |

These are yes or no findings as the source states them, for the method shown. In cells and extracts the contact can be indirect. Binding calls can cover weak binding; strength is not graded here.
